Assay results taken from the supplement of paper PMC10849652.
This is one part of the list.

By UniProt entry, the sequences of proteins in these tests, tags left out. Where a name states a change or a piece, a line headed by the entry shows the natural chain unless it says otherwise.
UniProt Q9H5V8, whole entry, looked up: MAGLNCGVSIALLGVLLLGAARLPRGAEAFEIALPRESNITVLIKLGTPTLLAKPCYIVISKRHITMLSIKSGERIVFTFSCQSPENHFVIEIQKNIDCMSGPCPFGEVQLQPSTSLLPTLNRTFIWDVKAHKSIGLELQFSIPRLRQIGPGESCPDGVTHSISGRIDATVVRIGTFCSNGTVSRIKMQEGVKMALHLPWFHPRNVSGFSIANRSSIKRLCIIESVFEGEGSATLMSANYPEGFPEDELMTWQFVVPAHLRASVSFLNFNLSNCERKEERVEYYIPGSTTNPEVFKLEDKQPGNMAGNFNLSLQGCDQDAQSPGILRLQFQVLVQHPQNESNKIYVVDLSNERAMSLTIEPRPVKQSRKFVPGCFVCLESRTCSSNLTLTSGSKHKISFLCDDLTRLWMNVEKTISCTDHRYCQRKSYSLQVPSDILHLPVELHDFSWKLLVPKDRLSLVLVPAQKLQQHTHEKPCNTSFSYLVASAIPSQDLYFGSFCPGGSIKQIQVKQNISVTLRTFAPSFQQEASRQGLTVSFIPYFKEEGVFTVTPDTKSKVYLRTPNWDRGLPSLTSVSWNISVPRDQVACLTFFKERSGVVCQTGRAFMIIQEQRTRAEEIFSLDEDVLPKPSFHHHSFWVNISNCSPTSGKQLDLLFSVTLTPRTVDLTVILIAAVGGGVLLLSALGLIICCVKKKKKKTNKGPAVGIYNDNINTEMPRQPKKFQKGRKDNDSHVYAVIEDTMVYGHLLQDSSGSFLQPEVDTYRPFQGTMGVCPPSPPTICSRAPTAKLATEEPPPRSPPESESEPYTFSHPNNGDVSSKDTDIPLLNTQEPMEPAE
UniProt O14519: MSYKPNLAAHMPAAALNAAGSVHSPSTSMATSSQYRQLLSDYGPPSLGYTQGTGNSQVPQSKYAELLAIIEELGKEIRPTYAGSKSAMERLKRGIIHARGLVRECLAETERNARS
UniProt P00751, whole entry, looked up: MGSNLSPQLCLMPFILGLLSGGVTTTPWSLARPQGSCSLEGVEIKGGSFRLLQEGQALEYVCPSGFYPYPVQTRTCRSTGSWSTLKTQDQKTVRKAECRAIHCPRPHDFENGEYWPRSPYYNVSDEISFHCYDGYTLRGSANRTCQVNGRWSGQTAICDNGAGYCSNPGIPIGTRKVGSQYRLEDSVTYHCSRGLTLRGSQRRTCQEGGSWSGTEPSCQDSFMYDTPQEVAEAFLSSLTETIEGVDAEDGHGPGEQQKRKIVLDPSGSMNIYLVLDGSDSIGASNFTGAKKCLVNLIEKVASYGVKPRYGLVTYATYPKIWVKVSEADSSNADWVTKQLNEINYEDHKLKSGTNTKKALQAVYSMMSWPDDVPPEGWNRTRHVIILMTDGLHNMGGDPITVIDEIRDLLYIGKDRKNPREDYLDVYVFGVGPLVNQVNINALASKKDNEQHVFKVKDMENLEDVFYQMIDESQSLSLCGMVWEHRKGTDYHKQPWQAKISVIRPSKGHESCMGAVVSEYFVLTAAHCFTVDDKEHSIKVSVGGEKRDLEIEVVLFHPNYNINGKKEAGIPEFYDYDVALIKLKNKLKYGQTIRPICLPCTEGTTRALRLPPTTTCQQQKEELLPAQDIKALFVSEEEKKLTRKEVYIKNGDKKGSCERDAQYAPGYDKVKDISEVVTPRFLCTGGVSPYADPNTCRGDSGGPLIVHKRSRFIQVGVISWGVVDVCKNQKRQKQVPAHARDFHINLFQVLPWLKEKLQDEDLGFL
UniProt Q9H3R5: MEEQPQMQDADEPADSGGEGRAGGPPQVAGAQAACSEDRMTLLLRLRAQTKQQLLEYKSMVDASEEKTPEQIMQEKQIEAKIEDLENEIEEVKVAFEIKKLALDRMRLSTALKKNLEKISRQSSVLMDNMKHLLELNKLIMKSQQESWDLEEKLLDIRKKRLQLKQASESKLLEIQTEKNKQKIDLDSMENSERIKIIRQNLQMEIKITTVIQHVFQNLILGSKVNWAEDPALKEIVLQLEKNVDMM
UniProt Q5VXU3: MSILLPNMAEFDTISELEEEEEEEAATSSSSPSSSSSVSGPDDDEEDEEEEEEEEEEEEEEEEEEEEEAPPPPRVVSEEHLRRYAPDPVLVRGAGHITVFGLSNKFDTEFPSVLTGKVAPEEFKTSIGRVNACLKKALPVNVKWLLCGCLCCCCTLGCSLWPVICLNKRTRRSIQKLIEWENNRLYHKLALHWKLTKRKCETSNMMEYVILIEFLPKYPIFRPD
UniProt O43633: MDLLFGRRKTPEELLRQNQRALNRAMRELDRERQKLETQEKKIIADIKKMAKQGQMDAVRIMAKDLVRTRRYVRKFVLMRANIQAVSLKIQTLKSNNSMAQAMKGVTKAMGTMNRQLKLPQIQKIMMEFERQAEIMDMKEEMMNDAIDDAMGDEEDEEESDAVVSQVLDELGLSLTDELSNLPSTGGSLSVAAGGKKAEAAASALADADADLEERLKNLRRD
UniProt P57076: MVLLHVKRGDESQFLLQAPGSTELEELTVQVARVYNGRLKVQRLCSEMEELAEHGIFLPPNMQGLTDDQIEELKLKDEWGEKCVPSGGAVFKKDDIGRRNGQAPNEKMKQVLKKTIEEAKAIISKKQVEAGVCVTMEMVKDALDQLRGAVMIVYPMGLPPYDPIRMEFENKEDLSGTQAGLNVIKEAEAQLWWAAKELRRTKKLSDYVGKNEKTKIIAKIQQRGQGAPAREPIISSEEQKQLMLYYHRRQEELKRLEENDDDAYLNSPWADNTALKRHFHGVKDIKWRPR
UniProt Q8N5B7: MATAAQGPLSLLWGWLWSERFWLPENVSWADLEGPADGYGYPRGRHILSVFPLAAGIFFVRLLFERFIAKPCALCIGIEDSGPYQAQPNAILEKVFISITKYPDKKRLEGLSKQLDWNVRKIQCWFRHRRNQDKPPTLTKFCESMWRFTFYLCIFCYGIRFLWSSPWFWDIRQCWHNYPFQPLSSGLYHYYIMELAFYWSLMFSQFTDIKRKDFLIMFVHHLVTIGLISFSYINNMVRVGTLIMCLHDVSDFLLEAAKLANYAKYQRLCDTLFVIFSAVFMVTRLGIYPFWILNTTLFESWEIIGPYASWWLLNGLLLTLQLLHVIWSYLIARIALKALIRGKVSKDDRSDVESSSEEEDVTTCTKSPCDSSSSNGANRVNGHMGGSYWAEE
UniProt Q8N2Z9: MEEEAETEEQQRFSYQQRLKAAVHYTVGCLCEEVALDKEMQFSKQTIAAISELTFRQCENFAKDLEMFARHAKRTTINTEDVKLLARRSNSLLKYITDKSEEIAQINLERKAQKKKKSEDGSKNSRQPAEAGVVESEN
UniProt P33151: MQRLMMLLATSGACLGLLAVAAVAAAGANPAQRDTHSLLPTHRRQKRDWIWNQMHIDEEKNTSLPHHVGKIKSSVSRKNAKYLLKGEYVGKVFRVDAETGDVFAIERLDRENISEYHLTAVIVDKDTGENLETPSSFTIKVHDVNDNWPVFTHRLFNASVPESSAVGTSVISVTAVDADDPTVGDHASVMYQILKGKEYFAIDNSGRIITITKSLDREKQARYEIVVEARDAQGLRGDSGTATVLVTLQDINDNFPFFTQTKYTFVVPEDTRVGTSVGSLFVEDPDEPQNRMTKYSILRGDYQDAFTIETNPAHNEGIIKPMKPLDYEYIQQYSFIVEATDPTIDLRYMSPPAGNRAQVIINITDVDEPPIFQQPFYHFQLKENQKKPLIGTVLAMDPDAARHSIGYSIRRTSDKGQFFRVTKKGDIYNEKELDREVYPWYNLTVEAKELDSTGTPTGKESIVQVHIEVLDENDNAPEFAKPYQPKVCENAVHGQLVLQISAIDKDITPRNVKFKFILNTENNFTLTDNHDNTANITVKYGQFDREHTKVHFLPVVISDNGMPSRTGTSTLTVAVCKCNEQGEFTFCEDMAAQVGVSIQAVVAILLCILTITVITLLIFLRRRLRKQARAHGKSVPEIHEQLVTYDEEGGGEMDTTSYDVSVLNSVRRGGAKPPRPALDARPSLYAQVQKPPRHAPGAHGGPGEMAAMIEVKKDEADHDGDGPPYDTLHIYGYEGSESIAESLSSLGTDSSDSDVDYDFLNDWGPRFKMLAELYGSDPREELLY
UniProt Q66GS9: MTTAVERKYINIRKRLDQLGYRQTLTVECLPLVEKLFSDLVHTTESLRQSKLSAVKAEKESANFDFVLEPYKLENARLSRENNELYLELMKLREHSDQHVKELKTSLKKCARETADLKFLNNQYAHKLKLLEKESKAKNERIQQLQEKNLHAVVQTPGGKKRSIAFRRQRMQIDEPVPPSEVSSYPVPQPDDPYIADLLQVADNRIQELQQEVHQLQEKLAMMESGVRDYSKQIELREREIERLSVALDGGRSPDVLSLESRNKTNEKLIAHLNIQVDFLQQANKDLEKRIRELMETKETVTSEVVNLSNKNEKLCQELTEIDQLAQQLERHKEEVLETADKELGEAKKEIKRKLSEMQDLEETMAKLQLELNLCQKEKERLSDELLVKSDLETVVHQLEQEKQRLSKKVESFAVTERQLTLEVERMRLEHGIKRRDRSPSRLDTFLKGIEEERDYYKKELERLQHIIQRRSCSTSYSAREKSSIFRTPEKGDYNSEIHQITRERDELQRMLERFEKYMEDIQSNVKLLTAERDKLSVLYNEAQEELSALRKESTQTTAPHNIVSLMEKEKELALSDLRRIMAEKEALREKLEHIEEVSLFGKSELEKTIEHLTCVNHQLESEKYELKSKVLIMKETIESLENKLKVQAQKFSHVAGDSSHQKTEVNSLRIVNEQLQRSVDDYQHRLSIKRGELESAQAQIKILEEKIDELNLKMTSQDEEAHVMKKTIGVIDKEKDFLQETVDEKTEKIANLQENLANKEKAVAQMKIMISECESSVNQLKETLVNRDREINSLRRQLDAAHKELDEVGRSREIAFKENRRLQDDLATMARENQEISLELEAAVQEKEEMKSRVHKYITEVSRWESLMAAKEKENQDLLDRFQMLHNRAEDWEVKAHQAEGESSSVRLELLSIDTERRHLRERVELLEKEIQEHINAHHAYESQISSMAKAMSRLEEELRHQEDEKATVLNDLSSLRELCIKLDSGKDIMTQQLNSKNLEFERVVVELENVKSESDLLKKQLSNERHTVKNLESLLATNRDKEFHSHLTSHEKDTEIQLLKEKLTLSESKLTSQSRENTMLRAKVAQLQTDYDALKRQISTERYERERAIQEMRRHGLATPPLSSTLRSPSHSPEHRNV
UniProt Q99459: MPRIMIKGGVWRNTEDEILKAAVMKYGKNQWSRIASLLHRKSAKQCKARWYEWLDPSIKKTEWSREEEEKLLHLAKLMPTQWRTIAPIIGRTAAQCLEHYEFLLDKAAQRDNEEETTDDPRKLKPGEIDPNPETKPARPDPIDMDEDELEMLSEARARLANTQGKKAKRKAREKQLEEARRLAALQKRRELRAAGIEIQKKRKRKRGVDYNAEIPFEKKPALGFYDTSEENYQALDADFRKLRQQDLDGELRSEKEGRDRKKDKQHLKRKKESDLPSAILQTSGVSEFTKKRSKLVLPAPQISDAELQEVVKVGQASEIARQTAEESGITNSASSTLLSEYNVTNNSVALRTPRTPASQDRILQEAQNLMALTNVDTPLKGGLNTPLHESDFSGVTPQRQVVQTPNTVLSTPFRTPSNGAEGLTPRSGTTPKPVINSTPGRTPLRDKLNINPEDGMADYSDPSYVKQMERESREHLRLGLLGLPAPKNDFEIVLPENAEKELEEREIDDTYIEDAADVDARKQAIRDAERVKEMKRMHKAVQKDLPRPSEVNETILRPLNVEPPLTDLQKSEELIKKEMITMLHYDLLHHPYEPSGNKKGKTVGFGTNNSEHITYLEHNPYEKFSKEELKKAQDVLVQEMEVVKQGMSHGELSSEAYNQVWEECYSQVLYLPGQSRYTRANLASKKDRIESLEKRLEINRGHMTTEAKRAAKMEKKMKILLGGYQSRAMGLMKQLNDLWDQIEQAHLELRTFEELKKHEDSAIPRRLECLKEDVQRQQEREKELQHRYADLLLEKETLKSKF
UniProt Q9Y232: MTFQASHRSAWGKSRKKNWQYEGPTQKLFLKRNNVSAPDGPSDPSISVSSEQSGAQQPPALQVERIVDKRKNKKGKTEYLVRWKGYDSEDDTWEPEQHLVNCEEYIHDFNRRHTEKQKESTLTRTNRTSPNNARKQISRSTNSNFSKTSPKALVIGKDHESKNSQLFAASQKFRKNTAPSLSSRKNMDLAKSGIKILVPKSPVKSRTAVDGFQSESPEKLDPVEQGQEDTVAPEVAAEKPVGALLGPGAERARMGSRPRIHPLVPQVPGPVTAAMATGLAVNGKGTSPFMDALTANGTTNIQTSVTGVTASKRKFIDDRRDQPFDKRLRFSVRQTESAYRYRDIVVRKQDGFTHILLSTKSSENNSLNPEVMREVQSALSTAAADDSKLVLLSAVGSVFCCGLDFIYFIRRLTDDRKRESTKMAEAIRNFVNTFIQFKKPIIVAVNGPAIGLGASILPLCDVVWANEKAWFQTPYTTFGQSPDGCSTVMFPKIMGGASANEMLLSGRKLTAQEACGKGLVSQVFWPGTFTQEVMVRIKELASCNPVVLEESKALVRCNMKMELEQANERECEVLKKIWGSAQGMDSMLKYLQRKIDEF

compound: c1cn2cc(-c3ccc4cn[nH]c4c3)nc(Nc3ccc(N4CCOCC4)cc3)c2n1 [entospletinib]; assay: log2 fold change, soluble protein after heating vs DMSO (PISA); higher = thermal stabilisation; K562 cells, 10 uM, 30 min; active = over 0.2 and 3.5 SD of the protein, either way, in both replicates (recomputed)
Method in brief: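 K562 cells at 2×10^6 cells/mL were treated for 30 min with 10 μM compound, and aliquots were heated for 3 min over 48°C-58°C before pooling. Extraction used PBS with 0.5% NP-40 at 4°C, and soluble protein was the supernatant after 21,000xg for 90 min, measured by TMTpro 16plex LC-MS/MS with channel sums equalised. Thermal stability values, relative to control samples and from duplicates, are log2 fold changes.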

Row | Target | log2 fold change
1 | CHMP4A isoform 2 (UniProt Q9BY43) | inactive: 0.026
2 | CDCP1 (UniProt Q9H5V8) | inactive: -0.018
3 | CEP76 (UniProt Q8TAP6) | inactive: -0.025
4 | CFAP58 (UniProt Q5T655) | active: -1.11
5 | CHMP5 (UniProt Q9NZZ3) | inactive: -0.013
6 | CHML (UniProt P26374) | inactive: -0.035
7 | CDSN (UniProt Q15517) | inactive: -0.208
8 | CDK2AP1 (UniProt O14519) | inactive: -0.048
9 | CEP350 (UniProt Q5VT06) | inactive: 0.101
10 | CHFR (UniProt Q96EP1) | inactive: -0.342
11 | CFB (UniProt P00751) | inactive: 0.401
12 | CENPH (UniProt Q9H3R5) | inactive: -0.101
13 | CFDP1 (UniProt Q9UEE9) | inactive: -0.006
14 | CDKN2C (UniProt P42773) | inactive: 0.034
15 | CEP97 isoform 2 (UniProt Q8IW35) | inactive: -0.006
16 | CDCA3 (UniProt Q99618) | inactive: -0.01
17 | CEP192 (UniProt Q8TEP8) | inactive: 0.078
18 | CHIC1 (UniProt Q5VXU3) | inactive: -0.119
19 | CHMP2A (UniProt O43633) | inactive: -0.068
20 | CDKN1C (UniProt P49918) | inactive: -0.578

Row | Target | log2 fold change
21 | CFAP298 (UniProt P57076) | inactive: 0.201
22 | CDKAL1 (UniProt Q5VV42) | inactive: 0.005
23 | CDC42EP4 (UniProt Q9H3Q1) | inactive: 0.014
24 | CERS5 (UniProt Q8N5B7) | inactive: -0.014
25 | CDV3 (UniProt Q9UKY7) | inactive: -0.018
26 | CFH (UniProt P08603) | inactive: 0.103
27 | CENPS (UniProt Q8N2Z9) | inactive: -0.019
28 | CEP83 (UniProt Q9Y592) | inactive: -0.081
29 | CHEK2 isoform 9 (UniProt O96017) | inactive: -0.07
30 | CHMP3 (UniProt Q9Y3E7) | inactive: -0.042
31 | CFL2 (UniProt Q9Y281) | inactive: 0.038
32 | CDH5 (UniProt P33151) | inactive: 0.059
33 | CEP135 (UniProt Q66GS9) | inactive: -0.175
34 | CELF1 isoform 4 (UniProt Q92879) | inactive: 0.021
35 | CDC5L (UniProt Q99459) | inactive: -0.016
36 | CHCHD3 (UniProt Q9NX63) | inactive: 0.01
37 | CDYL (UniProt Q9Y232) | inactive: 0.041
38 | CHCHD7 isoform 4 (UniProt Q9BUK0) | inactive: -0.078
39 | CHMP1B (UniProt Q7LBR1) | inactive: -0.006

Single values from the entries so far:
CENPS (UniProt Q8N2Z9) – log2 fold change: inactive: -0.019
CDH5 (UniProt P33151) – log2 fold change: inactive: 0.059
